This is an account of results in patent US20170073392A1.

Sequences of proteins named here, by UniProt entry; tags and fusion partners are left off. Residues count along the entry.
UniProt P16070, residues 21-742: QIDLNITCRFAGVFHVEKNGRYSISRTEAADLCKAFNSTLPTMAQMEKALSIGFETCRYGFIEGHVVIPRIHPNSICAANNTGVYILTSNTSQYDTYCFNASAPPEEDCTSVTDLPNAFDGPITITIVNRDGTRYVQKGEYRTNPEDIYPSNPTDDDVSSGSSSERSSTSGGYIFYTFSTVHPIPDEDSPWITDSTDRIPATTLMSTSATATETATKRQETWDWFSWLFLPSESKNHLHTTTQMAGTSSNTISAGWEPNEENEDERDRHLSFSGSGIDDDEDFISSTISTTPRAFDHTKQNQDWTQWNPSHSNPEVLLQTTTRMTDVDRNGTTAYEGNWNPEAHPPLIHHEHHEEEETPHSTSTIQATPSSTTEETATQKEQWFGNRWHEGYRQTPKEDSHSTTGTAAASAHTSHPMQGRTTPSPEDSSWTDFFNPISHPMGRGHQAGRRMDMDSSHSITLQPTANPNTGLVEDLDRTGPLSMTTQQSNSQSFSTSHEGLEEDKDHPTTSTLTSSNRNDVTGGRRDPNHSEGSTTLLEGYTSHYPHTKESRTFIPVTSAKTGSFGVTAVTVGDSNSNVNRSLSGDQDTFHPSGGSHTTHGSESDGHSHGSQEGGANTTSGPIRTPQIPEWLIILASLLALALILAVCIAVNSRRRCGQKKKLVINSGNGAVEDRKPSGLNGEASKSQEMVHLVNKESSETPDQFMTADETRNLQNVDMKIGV

The target of the assay is CD44v5 on the human colon carcinoma cell line HCT-116 (human) (UniProt P16070). Description: fluorescence cytochemistry on fixed HCT-116 cells, Qdot-peptide conjugate 100 nM.

No constants are given. Whether binding was seen depends on the method and setting. Some entries that bind do so weakly or less than the wild type. Tags and fused reporters may be left off the sequences shown.

As for PGVPGVQLTANTQSLVLMSAFDIAIEVTFISSHHHHHH (peptide, not shown: large carriers, coupled via the His6-Tag to the QDBP-655 quantum dot) [MBP-(YTH_v5_A)-His6 fusion protein (peptide A) coupled to QDBP-655 quantum dots], the binding entry was “binds”.
